Laboratory results from article PMC7819943, “Rice protein-binding microarrays: a tool to detect cis-acting elements near promoter regions in rice”.
The list shows a part of the results.

The chains behind the UniProt entries cited, without tags or fusion partners.
UniProt Q0JBA9, entry or part of it: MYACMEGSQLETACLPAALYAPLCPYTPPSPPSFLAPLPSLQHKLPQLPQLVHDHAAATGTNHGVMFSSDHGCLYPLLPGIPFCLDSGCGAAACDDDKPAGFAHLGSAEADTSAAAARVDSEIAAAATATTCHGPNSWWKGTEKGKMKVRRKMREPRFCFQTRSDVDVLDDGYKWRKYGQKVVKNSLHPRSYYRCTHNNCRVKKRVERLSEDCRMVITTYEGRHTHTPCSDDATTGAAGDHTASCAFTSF

target: OsWRKY34 (Oryza sativa, UniProt Q0JBA9 1-250); assay: protein-binding microarray (RPBM); PBS, 2% BSA, 51.3 ng/ul salmon testes DNA, 50 uM zinc acetate, 200 nM TF, 25 C, 1 h; high values mean tight binding; conditions: protein: recombinant; tags: N-terminal polyhistidine and DsRed monomer fusion (pET32a); label: CyDye5-dUTP incorporated in the synthesized complementary strand; 3' TTTTT single-stranded linker to array surface; dsDNA, one strand shown
Summary of the method: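 Binding signal is reported as fluorescence intensity per feature (arbitrary units) from an Axon 4000B scanner. Incubation used 200 nM of each Ni–NTA-purified, N-terminally polyhistidine- and DsRed-fused transcription factor from E. coli BL21-CodonPlus on a double-stranded custom Agilent array for 1 h at 25 °C, with 50 µM zinc acetate in the buffer, followed by washing.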

Sequence	binding signal
TGGTTAAATGTCAATTTTCTCGTTGGGAGTTGGGAGGGATCGGAGTCACCTAGTGCAG	9280 fluorescence intensity (a.u.)
CTCCACATCTAACTAATTCTACACCAGCTTATATATTTATCGGAGTCACCTAGTGCAG	8710 fluorescence intensity (a.u.)
TTGCTTTCCTTGGCCTCACGCTTGTTCCATGTTAGTTCGACGGAGTCACCTAGTGCAG	16100 fluorescence intensity (a.u.)
TGTTTTTCCTATTTTGCTAGGAGTTGGGTATCTGGGACATCGGAGTCACCTAGTGCAG	8550 fluorescence intensity (a.u.)
ACCGAGCAAATACCTCGCATTTCATTTTTTTTTTTGCCTTCGGAGTCACCTAGTGCAG	9170 fluorescence intensity (a.u.)
TGAGAAAGAGAGAGAGAGGGAGATGGCTGGGGAGACGGGGCGGAGTCACCTAGTGCAG	9660 fluorescence intensity (a.u.)
GACCAACACCGGCCCCTGTCTTTTCTTTTGTGGCATCGCCCGGAGTCACCTAGTGCAG	9590 fluorescence intensity (a.u.)
GGGGTTCACGTGGGTTTCACTCATTATGTTAGCCAGAACCCGGAGTCACCTAGTGCAG	8450 fluorescence intensity (a.u.)
TTTTGGATTCCCTTTTCATCCATGGATGCATGTGTTCCTTCGGAGTCACCTAGTGCAG	8250 fluorescence intensity (a.u.)
CCACTTGCCCTTTGTCTTGTTCCTCCGCGCAGCTAGCTAGCGGAGTCACCTAGTGCAG	10300 fluorescence intensity (a.u.)
TCTCTTTTCTCATTTTTTCGCTTGCCACATCATTTTCTATCGGAGTCACCTAGTGCAG	9600 fluorescence intensity (a.u.)
GAATGACTGCGTTGCCAGCTTTTTTTCTTTCCTTCTTTTCCGGAGTCACCTAGTGCAG	13500 fluorescence intensity (a.u.)
ACCCTGCAGCTGTGTTTCCTTGTGTCCTCCTGTGCGTTGTCGGAGTCACCTAGTGCAG	15300 fluorescence intensity (a.u.)
GCTAGCTACCCACTTGAGGCCACTTCTGTCTTCTGCTACCCGGAGTCACCTAGTGCAG	9800 fluorescence intensity (a.u.)
GACTATAATTCGACAAGCTGGTGTGCTTATTCTTGTCCGTCGGAGTCACCTAGTGCAG	9080 fluorescence intensity (a.u.)
ACCTTTATTTTTTAATATATAAACGCTATTGACTTTTTTTCGGAGTCACCTAGTGCAG	10000 fluorescence intensity (a.u.)
AGGAGGTGTAGTAGGGTAGTGTAGGAGGTGTAGTGGAGTACGGAGTCACCTAGTGCAG	8450 fluorescence intensity (a.u.)
CACCACCACCGCCGCCGCCCTTCCGCTCTCGCCTCTCGCTCGGAGTCACCTAGTGCAG	8210 fluorescence intensity (a.u.)
ACGAATCCTCTCATATGTGTGCGCGTAGTGACTTTTTTCCCGGAGTCACCTAGTGCAG	8420 fluorescence intensity (a.u.)
TTTATCTCACCATGCATAATTGCAAGTATATTCCGTTCATCGGAGTCACCTAGTGCAG	9440 fluorescence intensity (a.u.)
TGGCAATCTCACAAAGCTGAAGTTGTTGTGGTTATCATGTCGGAGTCACCTAGTGCAG	8410 fluorescence intensity (a.u.)

An excerpt from further up, for reference:
Sequence	binding signal
TGTTTTTCCTATTTTGCTAGGAGTTGGGTATCTGGGACATCGGAGTCACCTAGTGCAG	8550 fluorescence intensity (a.u.)
ACCGAGCAAATACCTCGCATTTCATTTTTTTTTTTGCCTTCGGAGTCACCTAGTGCAG	9170 fluorescence intensity (a.u.)

Further entries follow.

Sequence	binding signal
CATTTCACACTCGCGTATATATTCTTCTTTCCTTTTGTCTCGGAGTCACCTAGTGCAG	12600 fluorescence intensity (a.u.)
TCCAGCGACGTTGTGGTGGGTATCTGAGGGCTGAGACATGCGGAGTCACCTAGTGCAG	8110 fluorescence intensity (a.u.)
ACCCCGCTTCCAGTTCTGACTCTGTTGCCTCTCTGCTTTCCGGAGTCACCTAGTGCAG	10200 fluorescence intensity (a.u.)
CAAACATAGCTTTTCTTTTTTCTTTCATTTCTCGTGGGAACGGAGTCACCTAGTGCAG	8100 fluorescence intensity (a.u.)
GAATGTTGATGCTGTTGATGCATGCACCTGCCGAAGGCCGCGGAGTCACCTAGTGCAG	9170 fluorescence intensity (a.u.)
CACCGTTAATTTTTTCTCACATGTTTGACCATTCATCTTACGGAGTCACCTAGTGCAG	14400 fluorescence intensity (a.u.)
TACCATATTCGCGCCGGTTCGTTTTCGCTCCGTTTTCGATCGGAGTCACCTAGTGCAG	9680 fluorescence intensity (a.u.)
GGGGATGGAGGTAGTATTTCTAAGATTTAAATTTTGTAGACGGAGTCACCTAGTGCAG	11100 fluorescence intensity (a.u.)
CATCTTCGACCTCGGCCCGCTCCTCCGCGACCTGCACGCGCGGAGTCACCTAGTGCAG	9570 fluorescence intensity (a.u.)
GAATTTCCGGAAATTTTCTCGGAATTACTAGAAATTTTGTCGGAGTCACCTAGTGCAG	9140 fluorescence intensity (a.u.)
CTCACCCTCGACCTGTCATCCTCCGCCACCTTCTTCGACTCGGAGTCACCTAGTGCAG	10000 fluorescence intensity (a.u.)
GAGGTGAGGGGAGGGTCGCCGGAGACGGAGGTCTAGGGTTCGGAGTCACCTAGTGCAG	8240 fluorescence intensity (a.u.)
AAACCATTTTTTTTATCTATTATCCTTTGACTGTTTAATTCGGAGTCACCTAGTGCAG	10500 fluorescence intensity (a.u.)
CTGGCGAGCAGAGCAGGGGAGGGGAAGGGAAGGTATCCTGCGGAGTCACCTAGTGCAG	8460 fluorescence intensity (a.u.)
TACCCTTTTTTTGGGTAGGGTGGGTTGGATTTATTTATTTCGGAGTCACCTAGTGCAG	12300 fluorescence intensity (a.u.)
GGGCTTTTTTTACCTAGTTGATTAGCATTCCGCCATGTTACGGAGTCACCTAGTGCAG	10700 fluorescence intensity (a.u.)
ATATGGCCCTGCACTACGAGTCTGTTTGTTTACTTGAGTCCGGAGTCACCTAGTGCAG	9210 fluorescence intensity (a.u.)
TGGTGGTGGTTCTTTCAATTTGGAATACTGTCCTAGTGTCCGGAGTCACCTAGTGCAG	8580 fluorescence intensity (a.u.)
TGACGCCGTTGACTTTTTCTTACATGTTTGACCATTCGTCCGGAGTCACCTAGTGCAG	36700 fluorescence intensity (a.u.)
TGTTACTGCGAGCATCACTTACTACTCTGTTTGACCATCACGGAGTCACCTAGTGCAG	10500 fluorescence intensity (a.u.)
TTCTTCATTTGTAATATGTCGTTTGGTTTATTTCCCGAACCGGAGTCACCTAGTGCAG	10500 fluorescence intensity (a.u.)
